Data taken from the supplement of paper PMC7646827.
Single values are uncertain, as repeats are few or missing.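 All cells are established human bladder cancer lines, one of them grown from a patient-derived xenograft. Viability was read by a luminescent ATP assay as percent inhibition versus vehicle over a seven-point dilution series; the paper calls scores above 59 very active, 30–59 active, 21–29 semi-active, 9–20 low active and below 9 inactive.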

Key:
Experiment in all cases: drug sensitivity score DSS3 (score 0-100); higher = more sensitive; extreme values may be limits of the assay
Details in all cases: culture: 3D, ultra-low attachment; treatment time: 5 days
UM-UC-14 = system: UM-UC-14
UM-UC-9 = system: UM-UC-9
TCCSUP = system: TCCSUP
SW780 = system: SW780
UM-UC-15 = system: UM-UC-15
UM-UC-6 = system: UM-UC-6
T-24 = system: T-24
UM-UC-1 = system: UM-UC-1
SCaBER = system: SCaBER
UM-UC-5 = system: UM-UC-5
UM-UC-3 = system: UM-UC-3
J82 = system: J82
UM-UC-18 = system: UM-UC-18
5637 = system: 5637
UM-UC-17 = system: UM-UC-17
BC8149 = system: BC8149
UM-UC-12 = system: UM-UC-12

Compound	drug sensitivity score DSS3 (UM-UC-14)	drug sensitivity score DSS3 (UM-UC-9)	drug sensitivity score DSS3 (TCCSUP)	drug sensitivity score DSS3 (SW780)	drug sensitivity score DSS3 (UM-UC-15)	drug sensitivity score DSS3 (UM-UC-6)	drug sensitivity score DSS3 (T-24)	drug sensitivity score DSS3 (UM-UC-1)	drug sensitivity score DSS3 (SCaBER)	drug sensitivity score DSS3 (UM-UC-5)	drug sensitivity score DSS3 (UM-UC-3)	drug sensitivity score DSS3 (J82)	drug sensitivity score DSS3 (UM-UC-18)	drug sensitivity score DSS3 5637	drug sensitivity score DSS3 (UM-UC-17)	drug sensitivity score DSS3 (BC8149)	drug sensitivity score DSS3 (UM-UC-12)
O=NN(CCCl)C(=O)NC1CCCCC1 [Lomustine] (max dose 10000 nM)	0	0.707	10.3	0.00237	0	0.0239	0	4.58	0	0	0.00699	0	1.04	12.7	3.93	2.18	0
O=C(O)c1nn(Cc2ccc(Cl)cc2Cl)c2ccccc12 [Lonidamine] (max dose 10000 nM)	0	0.846	7.09	0	0.00122	0	0	6.25	11.7	8.47	4.52	0	0.115	15.4	0.425	5.92	0
Cc1ccc(Nc2c(F)cccc2Cl)c(CC(=O)O)c1 [Lumiracoxib] (max dose 10000 nM)	0	0	0	0.38	0	0	0	0	0	0	0	0	0	0	0	0	0
CCCCCCCc1ccc(CCc2cccc(O)c2C(=O)O)cc1 [MG149] (max dose 10000 nM)	2.88	0.884	7.93	0.0832	0	0.772	0	2.47	0.75	0.33	1	0	0	3.65	2.29	5.41	1.13
O=C(O)CC[C@H]1CC[C@@](c2cc(F)ccc2F)(S(=O)(=O)c2ccc(Cl)cc2)CC1 [MK-0752] (max dose 10000 nM)	3.06	0	0	0	0	0	0	0	13.9	0.235	9.32	0	0	0	0	0	0
CN(C[C@@H]1COCCO1)S(=O)(=O)Nc1ccc2ccc3ncc(-c4cnn(C)c4)cc3c(=O)c2c1 [MK-2461] (max dose 10000 nM)	6.52	2.7	4	6.97	2.1	0	0	3.15	4.05	0.132	1.58	2.96	2.16	7.54	8.4	5.73	7.76
O=C(O)[C@]1(Cc2cccc(Nc3nccs3)n2)CC[C@@H](Oc2cccc(Cl)c2F)CC1 [MK-5108 (VX-689)] (max dose 10000 nM)	0.954	0.0405	5.93	0	0	4.18	0	3.92	0	0	0.065	0	3.57	2.96	2.32	0.294	0
COc1ccc(-c2cnc3c(-c4cccc5ncccc45)cnn3c2)cc1 [ML347] (max dose 10000 nM)	0	0.0446	0	0	0	0.0167	0.881	0.0349	2.24	1.06	0	0	0	0	0	0	0
CC(C)C[C@H](NC(=O)CNC(=O)c1cc(Cl)ccc1Cl)B(O)O [MLN2238] (max dose 10000 nM)	34	32	34.8	45.9	30.4	26.6	5.67	38.6	42.5	27.2	15	32.9	30.2	47.9	40.3	55	50.6
CC(C)C[C@H](NC(=O)CNC(=O)c1cc(Cl)ccc1Cl)B1OC(=O)C(CC(=O)O)(CC(=O)O)O1 [MLN9708] (max dose 10000 nM)	47.7	44.6	65.3	64.3	32.9	41.1	12.1	52.7	54.7	32.6	19.7	37.9	45.8	72.2	61.4	69.7	66.6
CC(=O)O[C@]1(C(C)=O)CC[C@H]2[C@@H]3C[C@H](C)C4=CC(=O)CC[C@]4(C)[C@H]3CC[C@@]21C [Medroxyprogesterone acetate] (max dose 10000 nM)	0	0	0	0	0	0	0	0	0	0	0	0	0	0	0	0	0
CC(=O)O[C@]1(C(C)=O)CC[C@H]2[C@@H]3C=C(C)C4=CC(=O)CC[C@]4(C)[C@H]3CC[C@@]21C [Megestrol Acetate] (max dose 10000 nM)	0	0	0	0	0	0	0	0	0	0	0.0258	0	0	0	0	0	0

Part of the list above, limited to drug sensitivity score DSS3 (T-24) and drug sensitivity score DSS3 (J82):
Compound	drug sensitivity score DSS3 (T-24)	drug sensitivity score DSS3 (J82)
COc1ccc(-c2cnc3c(-c4cccc5ncccc45)cnn3c2)cc1 [ML347] (max dose 10000 nM)	0.881	0
CC(C)C[C@H](NC(=O)CNC(=O)c1cc(Cl)ccc1Cl)B(O)O [MLN2238] (max dose 10000 nM)	5.67	32.9
